Experimental data: publication PMC3510033
These are yes or no findings as the source states them, for the method shown.

The chains behind the UniProt entries cited, without tags or fusion partners. Where a name states a change or a piece, a line headed by the entry shows the natural chain unless it says otherwise.
UniProt P07582: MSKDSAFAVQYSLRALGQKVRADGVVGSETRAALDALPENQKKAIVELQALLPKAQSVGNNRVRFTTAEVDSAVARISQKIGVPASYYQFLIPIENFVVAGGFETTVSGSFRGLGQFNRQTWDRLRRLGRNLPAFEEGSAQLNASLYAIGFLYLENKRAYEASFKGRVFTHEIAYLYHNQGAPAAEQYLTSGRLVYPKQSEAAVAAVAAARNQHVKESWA

Key:
Experiment in all cases: SEC; size-exclusion column of the purified protein alone; elution compared with the calculated mass; both purified
[1] = biological target: bacteriophage Φ6 lysin protein P5, wildtype (P5^wt) (bacteriophage Φ6) (UniProt P07582)
[2] = biological target: P5ΔV8^V207F (residues 48-220 of Φ6 P5 V207F, V8 protease fragment) (bacteriophage Φ6) (UniProt P07582)
[3] = biological target: P5ΔV8^wt (residues 48-220 of Φ6 P5, V8 protease fragment) (bacteriophage Φ6) (UniProt P07582)
[4] = biological target: bacteriophage Φ6 lysin protein P5 with the V207F substitution (P5^V207F) (bacteriophage Φ6) (UniProt P07582)

bacteriophage Φ6 lysin protein P5, wildtype (P5^wt) (from UniProt P07582 1-220) (enzyme)
binding [1]: no binding

P5ΔV8^V207F (residues 48-220 of Φ6 P5 V207F, V8 protease fragment) (from UniProt P07582 48-220) (domain or fragment)
binding [2]: no binding

P5ΔV8^wt (residues 48-220 of Φ6 P5, V8 protease fragment) (from UniProt P07582 48-220) (domain or fragment)
binding [3]: no binding

bacteriophage Φ6 lysin protein P5 with the V207F substitution (P5^V207F) (from UniProt P07582 1-220) (enzyme)
binding [4]: no binding
